Experimental data from PubChem BioAssay AID1347072 (National Center for Advancing Translational Sciences (NCATS), 2019).
In all, about 44,000 compounds went through this assay and fewer than 10 were called active. The inconclusive results got no clear call from the source; some entries with a clear call stand among them for comparison. The call rests on the fitted dose curve; in most records, active means well fitted curve in the direction sought with a large enough effect; inconclusive means small, poorly fitted or top-dose-only effect, or another doubt; inactive means no such curve, though single readings can be large or run the other way. A potency beside an inconclusive call is a rough fit, not a confirmed value.

Sequences of proteins named here, by UniProt entry; tags and fusion partners are left off. A change or cut given only in a name is not applied to a line headed by its entry.
UniProt P51570: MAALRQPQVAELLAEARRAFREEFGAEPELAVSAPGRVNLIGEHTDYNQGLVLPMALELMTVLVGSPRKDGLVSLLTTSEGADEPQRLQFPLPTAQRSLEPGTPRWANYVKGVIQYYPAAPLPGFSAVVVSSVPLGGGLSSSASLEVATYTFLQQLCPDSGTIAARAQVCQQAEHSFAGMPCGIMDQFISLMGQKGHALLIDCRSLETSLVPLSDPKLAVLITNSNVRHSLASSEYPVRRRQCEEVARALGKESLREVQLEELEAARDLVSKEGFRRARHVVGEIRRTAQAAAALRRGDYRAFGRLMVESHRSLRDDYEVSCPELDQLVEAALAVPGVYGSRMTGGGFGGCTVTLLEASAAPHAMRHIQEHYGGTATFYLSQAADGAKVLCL

target: Galactokinase (Homo sapiens) (UniProt P51570); assay: qHTS Assay for Inhibitors of Human Galactokinase (GALK): NCGC Sytravon Library Screen; details: recombinant GALK, Kinase-Glo ATP luminescence, 1 h; series mostly up to 57.5 µM; activity, negative = inhibition: at the top concentration;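 on activity, negative = inhibition: plate controls were full GALK reaction for no effect and reaction lacking GALK for full effect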
Procedure, shortened: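 Human GALK (5 nM) was incubated with 35 uM ATP and 100 uM galactose in 20 mM HEPES pH 8.0 with MgCl2, NaCl, DTT and BSA for 1 h at room temperature. Remaining ATP was measured by Kinase-Glo Plus luminescence.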

Potency, inconclusive:
O=C(CSc1ccccc1)N1CCc2c([nH]c3ccccc23)C1c1ccc(Cl)cc1 (stereo not drawn) 3.16 µM [inhibitor, full curve, poor fit]
COc1ccc(S(=O)(=O)N2CCC(C(=O)NC(C)c3ccccc3)CC2)cc1 (stereo not drawn) 3.98 µM [inhibitor, partial curve, poor fit]
CCCCC(=O)Nc1cc(-c2nc3cccnc3s2)ccc1C 7.94 µM [inhibitor, partial curve, poor fit]
Cc1ccc(CNC(=O)c2ccc3c(c2)CCN3S(=O)(=O)c2ccccc2)cc1 44.7 µM [inhibitor, partial curve, poor fit]
COc1ccccc1NC(=O)c1nn(C)c2c1CS(=O)(=O)c1ccccc1-2 31.6 µM [inhibitor, partial curve, poor fit]
CCC(Sc1ncc(S(=O)(=O)c2ccc(C)cc2)c(=O)[nH]1)C(=O)Nc1cc(C)ccc1C (stereo not drawn) 22.4 µM [inhibitor, partial curve, poor fit]
Cc1ccc(S(=O)(=O)c2nc(S(=O)(=O)c3ccccc3)sc2NCCCOC(C)C)cc1 39.8 µM [inhibitor, partial curve, poor fit]
CCc1ccc(C2C(C(=O)Nc3ccccc3C)=C(C)Nc3nc(SCc4cccc(OC)c4)nn32)cc1 (stereo not drawn) 0.141 µM [inhibitor, full curve, poor fit]
Oc1ccc(NCc2ccccc2OCc2ccc(Cl)cc2)cc1 35.5 µM [inhibitor, single point]
COc1ccc2c(Sc3ccc(C)cc3)c(C(=O)NC(C)C)[nH]c2c1 0.891 µM [inhibitor, full curve, poor fit]
CCC(C)NC(=O)CCCc1nnc2n(CC(C)C)c(=O)c3sccc3n12 (stereo not drawn) 1.26 µM [inhibitor, full curve, poor fit]
COc1ccccc1C(=O)Nc1sc(Nc2ccccc2)nc1C(N)=O 17.8 µM [inhibitor, partial curve, poor fit]
CCc1ccc(CNC(=O)c2ccc(CS(=O)(=O)Cc3cccc(C)c3)o2)cc1 35.5 µM [inhibitor, partial curve, poor fit]
CCOCN(C(=O)Cn1c(CC(C)C)nc2ccccc21)c1c(C)cccc1CC 2.51 µM [inhibitor, full curve, poor fit]
Cc1nc2c(C(=O)NCCc3ccccc3)c[nH]n2c(=O)c1Cc1ccc(F)cc1Cl 35.5 µM [inhibitor, partial curve, poor fit]
COc1ccc(-c2nnc(SCC(=O)Oc3cccc(C)c3C)o2)cc1 0.141 µM [inhibitor, full curve, poor fit]
CCc1ccccc1NC(=O)C(=O)c1cc(C)n(-c2ccccc2F)c1C 10 µM [inhibitor, partial curve, poor fit]
CC1CCCCN1C(=O)CSc1nc2ccccc2nc1Cc1ccc(Cl)cc1 (stereo not drawn) 39.8 µM [inhibitor, partial curve, poor fit]
CCN1C(=O)c2ccccc2Sc2ccc(NC(=O)Nc3ccc(C(C)=O)cc3)cc21 1 µM [inhibitor, full curve, poor fit]
COc1cccc(C(=O)NCc2cn3ccccc3n2)c1 0.794 µM [inhibitor, full curve, poor fit]
Cc1cc(C)cc(NC(=O)Cn2c(=O)n(-c3cc(C)cc(C)c3)c(=O)c3oc4ccccc4c32)c1 0.631 µM [inhibitor, partial curve, poor fit]
Cc1ccc(CCNC(=O)c2ccc(NC(=O)N3CC(C)Sc4ccccc43)cc2)cc1 (stereo not drawn) 28.2 µM [inhibitor, partial curve, poor fit]
CC(=O)c1cccc(NC(=O)c2nc(-c3ccccc3)n(-c3ccccc3C)n2)c1 0.141 µM [inhibitor, full curve, poor fit]
O=C(Cc1c(C(=O)O)[nH]c2ccccc12)Nc1cccc(C(F)(F)F)c1 28.2 µM [inhibitor, partial curve]

Structures listed so far that contain two or more sulfur atoms, in the order listed:
Potency, inconclusive:
CCC(Sc1ncc(S(=O)(=O)c2ccc(C)cc2)c(=O)[nH]1)C(=O)Nc1cc(C)ccc1C (stereo not drawn) 22.4 µM [inhibitor, partial curve, poor fit]
Cc1ccc(S(=O)(=O)c2nc(S(=O)(=O)c3ccccc3)sc2NCCCOC(C)C)cc1 39.8 µM [inhibitor, partial curve, poor fit]

Next part:

activity, negative = inhibition, inactive:
CC(C)CC(=O)Nc1ccc(Cl)c(-c2nc3ccccc3[nH]2)c1 -0.212%
COc1cc(NS(=O)(=O)c2ccc3oc(=O)c4ncn(C)c4c3c2)cc(OC)c1 1.24%
CCN(CC)c1cc(C)c2cc(NC(=O)c3cccc(OC)c3OC)ccc2n1 6.88%
CCOc1ccc(Nc2nc(N)c(C(=O)c3ccccc3Cl)s2)cc1 1.6%
Clc1ccc(Nc2nc(-c3ccccc3)c3ccccc3n2)c(Cl)c1 -0.711%
COc1ccc(-c2c(C)c3ccc(O)c(CN4CCCCC4)c3oc2=O)cc1OC 1.25%
COc1ccccc1CNCc1ccc(C(=O)O)s1 -3.41%
CCCCc1ccc(Nc2cc(C)nc(-n3nc(C)cc3C)n2)cc1 -0.993%
CCOc1ccc(CNCc2c(C(=O)O)c(C)n(Cc3c(F)cccc3Cl)c2C)cc1OC 1.79%
Cc1ccc(C(=O)Nc2cccc3cccnc23)cc1Cl 9.47%
Cc1ccc(CNC(=O)c2c(C)oc3ncnc(N4CCOCC4)c23)cc1 1.85%
Cc1cc(-n2ccnc(NCCc3ccc(S(N)(=O)=O)cc3)c2=O)ccc1Br 4.36%
CCn1cc(C(=O)Nc2ccc(C(C)C)cc2)c2cc(OC)c(OC)cc2c1=O 6.6%
CCOc1ccc(/C=C/c2nc3ccccc3n2S(=O)(=O)c2cccc(Cl)c2)cc1 23.1%
CCOC(=O)c1c(C)[nH]c(C)c1S(=O)(=O)N1CCN(c2ccc(Cl)cc2)CC1 -3.68%
CCOc1ccc(C(=O)Nc2ccc(-c3nc4ccccc4s3)c(C)c2)cc1OCC 3.07%
COc1ccc(C(C(=O)NCc2ccccc2)N(C(=O)Cn2nnc3ccccc32)c2ccc(F)cc2)cc1 (stereo not drawn) -11.1%
CCOc1cc(C2CC(=O)Nc3cc4c(cc32)OCCO4)ccc1O (stereo not drawn) -0.178%
Fc1ccc(NCc2cccn2-c2nnc(N3CCOCC3)s2)cc1 1.19%
